According to paper PMC9794714:
These are yes or no findings as the source states them, for the method shown. Binding seen in cells or lysates may run through a third protein. Some results given as binding are weak or reduced against the parent protein; the word gives no strength. For some of these results: Tags and fused reporters may be left off the sequences shown.

Protein sequences, listed by entry. Tags and fused reporters are not part of them.
UniProt Q13541: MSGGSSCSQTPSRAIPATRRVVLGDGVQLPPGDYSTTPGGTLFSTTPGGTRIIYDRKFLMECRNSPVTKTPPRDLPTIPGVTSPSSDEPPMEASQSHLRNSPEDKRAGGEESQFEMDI
UniProt P40763: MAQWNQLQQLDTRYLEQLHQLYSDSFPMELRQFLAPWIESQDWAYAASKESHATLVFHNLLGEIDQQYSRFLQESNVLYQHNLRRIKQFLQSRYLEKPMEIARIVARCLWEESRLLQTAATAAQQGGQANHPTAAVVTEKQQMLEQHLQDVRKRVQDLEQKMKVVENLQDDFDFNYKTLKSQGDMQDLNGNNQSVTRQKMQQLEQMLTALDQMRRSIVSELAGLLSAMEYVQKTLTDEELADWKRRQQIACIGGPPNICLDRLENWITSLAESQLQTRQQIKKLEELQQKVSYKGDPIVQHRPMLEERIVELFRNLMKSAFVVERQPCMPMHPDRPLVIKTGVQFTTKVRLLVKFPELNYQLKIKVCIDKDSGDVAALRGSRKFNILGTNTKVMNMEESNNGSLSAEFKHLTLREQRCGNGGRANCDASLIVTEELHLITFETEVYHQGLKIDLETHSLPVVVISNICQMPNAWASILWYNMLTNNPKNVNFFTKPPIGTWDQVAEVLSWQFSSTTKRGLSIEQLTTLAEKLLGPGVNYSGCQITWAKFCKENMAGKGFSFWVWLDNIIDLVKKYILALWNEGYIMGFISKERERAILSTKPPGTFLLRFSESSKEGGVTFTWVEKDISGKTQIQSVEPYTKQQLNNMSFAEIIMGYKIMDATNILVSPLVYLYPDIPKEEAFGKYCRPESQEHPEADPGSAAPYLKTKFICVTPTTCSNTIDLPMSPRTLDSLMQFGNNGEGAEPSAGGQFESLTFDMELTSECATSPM

Columns and labels:
Flag-4EBP1 = Flag-4EBP1 (UniProt Q13541); assay: co-IP; A549 cells transfected with Flag-4EBP1 or vector, normal or glucose starvation for 9 h; immunoprecipitation with anti-Flag antibody, western blot
[1] = target: T1, HA-HERC5 (HECT and RLD domain containing E3 ubiquitin protein ligase 5) (UniProt Q9UII4); assay: co-IP; A549 cells transfected with HA-HERC5 or vector, normal or glucose starvation for 9 h; immunoprecipitates with anti-HA antibody blotted
T1 sequence: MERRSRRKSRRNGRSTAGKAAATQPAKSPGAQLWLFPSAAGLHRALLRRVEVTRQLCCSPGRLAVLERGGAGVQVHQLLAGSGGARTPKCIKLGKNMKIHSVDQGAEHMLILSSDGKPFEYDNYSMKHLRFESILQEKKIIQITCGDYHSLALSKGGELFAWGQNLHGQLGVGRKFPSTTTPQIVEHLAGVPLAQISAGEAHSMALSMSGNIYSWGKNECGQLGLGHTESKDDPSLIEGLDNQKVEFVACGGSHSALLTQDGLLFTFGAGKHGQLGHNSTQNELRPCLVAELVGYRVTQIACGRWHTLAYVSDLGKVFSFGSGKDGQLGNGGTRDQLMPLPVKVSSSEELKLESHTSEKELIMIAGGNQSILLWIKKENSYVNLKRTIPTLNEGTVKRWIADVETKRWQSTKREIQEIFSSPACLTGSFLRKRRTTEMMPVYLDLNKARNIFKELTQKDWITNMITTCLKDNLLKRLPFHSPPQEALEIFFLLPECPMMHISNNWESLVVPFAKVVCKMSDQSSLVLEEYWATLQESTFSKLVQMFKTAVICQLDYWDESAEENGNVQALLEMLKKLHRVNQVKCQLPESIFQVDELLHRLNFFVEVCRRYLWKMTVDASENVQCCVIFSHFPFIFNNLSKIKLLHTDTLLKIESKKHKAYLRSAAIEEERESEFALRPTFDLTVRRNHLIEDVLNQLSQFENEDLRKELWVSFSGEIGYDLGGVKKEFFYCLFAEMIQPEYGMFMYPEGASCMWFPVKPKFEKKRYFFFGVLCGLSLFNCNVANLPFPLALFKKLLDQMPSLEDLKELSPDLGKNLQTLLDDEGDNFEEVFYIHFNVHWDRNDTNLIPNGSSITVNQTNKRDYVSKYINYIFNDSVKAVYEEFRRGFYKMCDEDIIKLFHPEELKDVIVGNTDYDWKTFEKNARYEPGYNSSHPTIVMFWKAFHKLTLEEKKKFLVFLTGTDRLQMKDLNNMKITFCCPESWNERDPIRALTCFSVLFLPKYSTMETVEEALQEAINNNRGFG

[2] = target: T2, Flag-PTPMT1 (protein tyrosine phosphatase localized to the Mitochondrion 1) (UniProt Q8WUK0); assay: co-IP; A549 cells transfected with Flag-PTPMT1 or vector, normal or glucose starvation for 9 h; immunoprecipitation followed by western blot (antibody of the precipitation not named)
T2 sequence: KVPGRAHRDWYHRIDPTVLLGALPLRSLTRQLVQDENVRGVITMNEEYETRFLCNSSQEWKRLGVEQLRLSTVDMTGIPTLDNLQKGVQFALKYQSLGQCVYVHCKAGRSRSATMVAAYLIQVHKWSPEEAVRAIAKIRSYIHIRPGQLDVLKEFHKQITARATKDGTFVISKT

[3] = target: STAT3 (signal transducer and activator of transcription-3), endogenous in A549 cells (human (endogenous in A549)) (UniProt P40763); assay: co-IP; endogenous proteins of A549 cells, normal or glucose starvation for 9 h; immunoprecipitation with anti-STAT3 antibody, western blot

binding (Flag-4EBP1) | binding [1] | binding [2] | binding [3] | Substance
binds | – | – | – | STAT3 (signal transducer and activator of transcription-3), endogenous in A549 cells (from UniProt P40763 1-770)
– | binds | binds | binds | Eukaryotic translation initiation factor 4E binding protein 1 (4EBP1), endogenous in A549 cells (from UniProt Q13541 1-118)
